In the supplement of paper PMC6078165:
± gives the standard deviation of the averaged measurements. The reference is the same well before dosing, and untreated signal decays as well.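 Fibroblast labels denote human fibroblasts, mainly primary ones from uterus (C12385, HUF), lung (H6013), bone (Hs27A), adrenal (HADF) and skin (WS1), plus mammary HMF and breast cancer-associated Hs343T. Cancer cells are basal-like or mesenchymal-like triple-negative breast cancer lines. A hit is a response shift exceeding 3x replicate standard deviation. The tissue of the other fibroblasts is not given here.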

Test system: BT20
Assay: relative JC-1 red fluorescence (viability) vs pre-drug, coculture with fibroblast (fraction); higher = more viable cancer cells
Details: 10 µM
Experimental: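 JC-1 labelled TNBC cells cocultured 1:1 (1,500 cells each) with CellTrace Violet stained primary or stromal fibroblasts in 384-well plates in FluoroBrite medium, treated with one of 42 anticancer drugs at 0.1, 1, 10 or 100 uM. JC-1 red fluorescence (mitochondrial integrity in cancer cells only) was read by plate reader every 8 h for 72 h. Values are normalised to each well's pre-drug value. The stock of one drug was tenfold lower, so its dose labels may be too high.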

CN(Cc1cnc2nc(N)nc(N)c2n1)c1ccc(C(=O)N[C@@H](CCC(=O)O)C(=O)O)cc1 [Methotrexate]
relative JC-1 red fluorescence
Details	8 h	16 h	24 h	32 h	40 h	48 h	56 h	64 h	72 h
coculture fibroblast: C12385	0.918 ± 0.025	0.8469 ± 0.0025	0.8445 ± 0.0056	0.8181 ± 0.0074	0.781 ± 0.017	0.762 ± 0.023	0.74 ± 0.012	0.7229 ± 0.0021	0.7072 ± 0.0037
coculture fibroblast: H6013	0.917 ± 0.023	0.939 ± 0.019	0.921 ± 0.049	0.811 ± 0.14	0.8937 ± 0.006	0.826 ± 0.1	0.82 ± 0.17	0.865 ± 0.11	0.941 ± 0.013
coculture fibroblast: H6019	0.926 ± 0.057	0.898 ± 0.075	0.899 ± 0.067	0.846 ± 0.058	0.809 ± 0.051	0.793 ± 0.042	0.776 ± 0.031	0.764 ± 0.025	0.759 ± 0.019
coculture fibroblast: H6076	0.955 ± 0.057	0.882 ± 0.047	0.831 ± 0.021	0.7999 ± 0.0018	0.77596 ± 0.00046	0.745 ± 0.011	0.745 ± 0.0076	0.746 ± 0.011	0.746 ± 0.012
coculture fibroblast: H6231	0.761 ± 0.064	0.9529 ± 0.0085	0.8312 ± 0.0056	0.7652 ± 0.002	0.7103 ± 0.0068	0.663 ± 0.018	0.621 ± 0.0095	0.603 ± 0.011	0.5584 ± 0.00087
coculture fibroblast: HADF	0.985 ± 0.02	0.855 ± 0.015	0.8376 ± 0.004	0.7891 ± 0.0035	0.775 ± 0.022	0.739 ± 0.026	0.742 ± 0.036	0.726 ± 0.044	0.699 ± 0.054
coculture fibroblast: HCFa	0.913 ± 0.067	0.867 ± 0.06	0.846 ± 0.096	0.799 ± 0.12	0.768 ± 0.11	0.735 ± 0.12	0.713 ± 0.11	0.696 ± 0.11	0.666 ± 0.11
coculture fibroblast: HCPF	0.761 ± 0.093	0.893 ± 0.043	0.809 ± 0.062	0.745 ± 0.065	0.706 ± 0.065	0.663 ± 0.068	0.609 ± 0.059	0.597 ± 0.071	0.56 ± 0.077
coculture fibroblast: HHSteC	0.963 ± 0.033	0.846 ± 0.12	0.747 ± 0.047	0.857 ± 0.14	0.896 ± 0.04	0.931 ± 0.052	0.907 ± 0.06	0.873 ± 0.054	0.834 ± 0.048
coculture fibroblast: HMF	0.86066 ± 0.00075	0.942 ± 0.043	0.808 ± 0.017	0.73 ± 0.0097	0.665 ± 0.015	0.6015 ± 0.0056	0.5474 ± 0.0044	0.509 ± 0.0087	0.471 ± 0.013
coculture fibroblast: HPFa	0.938 ± 0.01	0.851 ± 0.0088	0.857 ± 0.018	0.781 ± 0.023	0.76 ± 0.026	0.728 ± 0.029	0.721 ± 0.032	0.706 ± 0.032	0.677 ± 0.038
coculture fibroblast: HUF	0.916 ± 0.019	0.846 ± 0.044	0.827 ± 0.044	0.756 ± 0.029	0.704 ± 0.027	0.664 ± 0.031	0.642 ± 0.028	0.624 ± 0.026	0.609 ± 0.021
coculture fibroblast: Hs5	0.931 ± 0.066	0.9 ± 0.022	0.829 ± 0.018	0.779 ± 0.02	0.748 ± 0.019	0.719 ± 0.013	0.704 ± 0.016	0.684 ± 0.01	0.6805 ± 0.0064
coculture fibroblast: Hs27A	0.782 ± 0.11	0.829 ± 0.14	0.9577 ± 0.0034	0.9788 ± 0.0012	0.923 ± 0.015	0.923 ± 0.025	0.902 ± 0.028	0.886 ± 0.029	0.851 ± 0.025
coculture fibroblast: Hs343T	0.918 ± 0.069	0.903 ± 0.038	0.784 ± 0.021	0.726 ± 0.027	0.664 ± 0.017	0.599 ± 0.013	0.5169 ± 0.0035	0.481 ± 0.008	0.429 ± 0.0095
coculture fibroblast: WS1	0.873 ± 0.026	0.772 ± 0.024	0.744 ± 0.051	0.675 ± 0.055	0.624 ± 0.069	0.599 ± 0.074	0.574 ± 0.082	0.548 ± 0.087	0.533 ± 0.085
